# About 4,300 (3.1%) of roughly 140,000 compounds were called active. Inconclusive means that the source gave no clear call. Such entries were picked first, then a sample of the others.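 Rule for the calls: active = readout at or below -70, meaning at least 70% loss of cells showing the perinucleolar compartment, a nuclear body marking cancer cells; inconclusive = readout between -30 and a set limit; inactive = the rest.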
# Assay: High Content Assay for Compounds that inhibit the Assembly of the Perinucleolar Compartment;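 note: plate controls were DMSO wells for no effect and camptothecin positive control wells for full effect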
# Settings: PC3M PTB-GFP, PNC prevalence imaging, 16 h; at 10 µM; active compounds read low
# Outline: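 Read-out is percentage of cells bearing a perinucleolar compartment, from automated 20x imaging of fixed, Hoechst-stained PC3M PTB-GFP cells. Cells were seeded 4 h, then exposed 16 h to compound (23 nl of library stock) in duplicate plates.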
row,SMILES,"activity change (PNC), negative = inhibition"
1,CCOC(=O)c1oc2ccc(S(=O)(=O)n3nc(-c4ccc(OC)cc4)cc3N)cc2c1C,inactive: -26.2%
2,COC(=O)C(=NNc1c(C)n(C)n(-c2ccccc2)c1=O)C(=O)OC,inconclusive: -47.5%
3,COc1ccc(Nc2nc(-c3cccc([N+](=O)[O-])c3)nc3ccccc23)cc1,inconclusive: -45.4%
4,CC(C)CN(C(=O)COC(=O)c1ccc2c(c1)NC(=O)CS2)C1CCS(=O)(=O)C1 (centres undefined),inconclusive: -34.8%
5,COc1cccc(N(CC(=O)N2CCc3ccccc3C2)S(C)(=O)=O)c1,inconclusive: -32.8%
6,N#CC(C#N)=C1C=C2C=C(N3CCCCCC3)CCC2CC1 (centres undefined),active: -134%
7,CCCC1(C)Nc2ccccc2-c2nc3ccccc3n21 (centres undefined),active: -82%
8,CCc1ccc(NC2=NC(C(=O)c3ccccc3)CC(=O)N2)cc1 (centres undefined),inconclusive: -32.8%
9,N#CCSc1nnc2ccc3ccccc3n12,inconclusive: -63.2%
10,Cc1cccc(Nc2nc3c(s2)CCCC3)c1,inactive: -10.5%
11,O=C(N1CCOCC1)N1CCCC(c2nc(-c3cccs3)no2)C1 (centres undefined),inconclusive: -52.1%
12,Cc1csc(NC(=O)CSc2ncc(-c3ccccc3)[nH]2)n1,inconclusive: -46.3%
13,CCCCNC(=O)c1c(O)c2cccc3c2n(c1=O)CCC3,inconclusive: -62.3%
14,Cc1nc(NCc2ccco2)c(C#N)c2c1COC(C)(C)C2,inactive: -13.3%
15,O=C(/C=C/N1CCOCC1)c1cc2ccccc2o1,inactive: 35%
16,COc1ccc2nc(SCc3cccc(C)c3)nc(C)c2c1,inconclusive: -39.1%
17,O=C(Nc1cccc(Cl)c1)N1CCN(Cc2ccccc2)CC1,active: -96.3%
18,COc1ccc(/C=C2\SC(c3ccc(C)cc3)=NC2=O)cc1OC,inactive: 39.4%
19,Cc1ccc(CS/C(Nc2ccccc2C)=C(\C#N)C(=O)NCc2ccco2)c(C)c1,inconclusive: -44%
20,CC(=O)C1C(c2ccc(F)cc2)C2C(C)=NN=C2CC1(C)O (centres undefined),inconclusive: -48%
21,O=C(O)c1cc(-c2ccc(N3CCOCC3)cc2)nn1-c1ccc(F)cc1F,inconclusive: -39.1%
22,CCn1c(SCC(=O)Nc2nc(-c3ccccc3)cs2)nnc1-c1ccccc1O,inconclusive: -54.8%
23,CC(=O)N1CCC2(CC1)C(C#N)=C(N)Oc1n[nH]c(CSc3ccc(C)cc3)c12,inconclusive: -53%

row,SMILES,"activity change (PNC), negative = inhibition"
1,COc1ccc(S(=O)(=O)N(C)C)cc1NC(=O)[C@H](Cc1ccccc1)N1C(=O)c2ccccc2C1=O,inconclusive: -53.8%
2,C=CCc1ccc(OCC(O)CN2CCCCC2C)c(OC)c1 (centres undefined),inconclusive: -63.3%
3,c1ccc2c(c1)C(=Nn1cnnc1)c1ccccc1-2,inactive: 6.32%
4,CCCc1nnc(-c2cc(OC)c(OC)c(OC)c2)o1,active: -90.9%
5,CC1(C)SC(=S)N(/N=C/c2ccccc2)C1N(O)C(=O)Nc1ccc([N+](=O)[O-])cc1 (centres undefined),inconclusive: -47.9%
6,Cc1ccc(S(=O)(=O)NCC(=O)OCC(=O)N2N=C(c3ccc(Cl)cc3)CC2c2ccco2)cc1C (centres undefined),inactive: 19.1%
7,CCCCn1nc2cc(C(=O)NCc3cc(C(F)(F)F)cc(C(F)(F)F)c3)ccc2c1OCC,inconclusive: -53.4%
8,COc1ccc2[nH]c(=O)c(CN(C3CCCCC3)C(c3nnnn3Cc3ccco3)C(C)C)cc2c1 (centres undefined),inconclusive: -30.9%
9,Cc1ccn(Cc2n[nH]c(=S)n2Cc2ccccc2)n1,inconclusive: -41%
10,CCOc1ccccc1N1CC(C(=O)Nc2nccs2)CC1=O (centres undefined),inconclusive: -55.6%
11,Cc1ccccc1Cn1nc(C)c(NC(=O)c2noc3c2CCc2ccccc2-3)c1C,inconclusive: -37.3%
12,c1csc(-c2nc3nc4ccccc4nc3n2Cc2ccc3c(c2)OCO3)c1,inconclusive: -50.5%
13,COc1cc2nc3c4ccccc4n(CC#N)c3nc2cc1OC,inconclusive: -33.4%
14,Cc1noc(NS(=O)(=O)c2ccc(NC(=O)CSc3nc4c(cc3C#N)CCCC4)cc2)c1C,inconclusive: -32.1%
15,CNc1nc(-c2ccccc2)[n+](-c2ccc(C)cc2)s1,inactive: 38.7%
16,Cc1csc(NC(=O)c2cc([N+](=O)[O-])cc([N+](=O)[O-])c2)n1,active: -114%
17,N/C(=N\OC(=O)CC1CCCCC1)c1cccc([N+](=O)[O-])c1,inactive: 15.5%
18,Cc1ccc(C)n1-c1ccc(N2CCOCC2)nc1,inactive: -1.46%
19,O=S(=O)(Nc1ccccn1)c1ccc(Oc2ccccc2)cc1,inconclusive: -54.7%
20,Cc1cc2cc(CNC(=O)c3cccc([N+](=O)[O-])c3)ccc2n1C,inactive: 10.2%
21,CCOC(=O)c1sc2nc(NC(=O)C(C)(C)C)sc2c1C,inactive: 3.61%
22,CCOC(=O)c1ccc(N2C(=O)C(O)=C(C(C)=O)C2c2ccccc2)cc1 (centres undefined),inconclusive: -59.1%
23,O=C(C1CCCN(S(=O)(=O)c2ccccc2[N+](=O)[O-])C1)N1CCN(c2ccccc2)CC1 (centres undefined),inconclusive: -71.8%

row,SMILES,"activity change (PNC), negative = inhibition"
1,COc1cc(NC(=O)C/C(C)=N/NC(=O)Cc2ccc(Cl)cc2)c(OC)cc1Cl,inconclusive: -52%
2,CCCCNC(=S)NNC(=O)c1ccc2c(c1)OCO2,inconclusive: -32%
3,CC(C)(C)NC(=O)/C(=C\C=C\c1ccccc1)NC(=O)c1ccc([N+](=O)[O-])cc1,inconclusive: -39.6%
4,O=C(O)CCn1c(SCc2ccccc2)nc2ccccc21,inconclusive: -41.1%
5,COc1ccc(C(=O)N(CCCO)C(C)C(=O)NC2CCCCC2)cc1OC (centres undefined),inconclusive: -31.6%
6,NNC(=O)c1cccc(COc2cccc(Br)c2)c1,inactive: 18.3%
7,CS(=O)(=O)Oc1ccc(Br)cc1/C=C1/N=C(c2ccco2)OC1=O,inactive: 28.8%
8,CCC(=O)Nc1nnc(C)s1,active: -106%
9,Cc1ccccc1NS(=O)(=O)c1cc(C(=O)NCCC2=CCCCC2)ccc1Cl,inconclusive: -32%
10,CCNC(=S)N(Cc1cccs1)Cc1cc2cc(OCC)ccc2[nH]c1=O,inconclusive: -51.4%
11,Clc1ccc(Nc2nc(NCCN3CCOCC3)nc(N3CCOCC3)n2)cc1,inconclusive: -40.9%
12,CN(C)c1nc(OCCOC(=O)Nc2ccc(Cl)cc2Cl)nc(N(C)C)n1,inconclusive: -73.5%
13,COc1cc(/C=C/C(=O)N2CCCc3ccccc32)cc(OC)c1OC,inactive: 15.4%
14,CCC1(C)Cc2ccccc2-c2c1c(=O)n(-c1ccc(C)cc1)c1nnnn21 (centres undefined),inactive: 21.6%
15,O=C(CN1CCN(C(=O)c2ccccc2F)CC1)Nc1ccc(Br)cc1,inactive: 7.91%
16,CCOC(=O)CNC(=O)CCCCCC(=O)NCC(=O)OCC,inconclusive: -37.3%
17,N#CC1=C2N=C(N)c3ccccc3N2C2=C(C(=O)CCC2)C1c1ccc(Cl)cc1 (centres undefined),inactive: 54.9%
18,O=C(CCNS(=O)(=O)c1cccc2nsnc12)NC1CCCc2ccccc21 (centres undefined),inactive: 28.1%
19,C/C=C/Cn1c(N2CCCCCC2)nc2c1c(=O)[nH]c(=O)n2C,inconclusive: -38.1%
20,FC(F)(F)c1cccc(-c2cc3ccccc3nc2N2CCCC2)c1,active: -94.9%
21,Cc1cc(C)cc(NS(=O)(=O)c2ccc(NC(=S)NC(=O)c3ccc(Br)o3)cc2)c1,inconclusive: -61.5%
22,O=C(C1CC1)N1CCCN(C(=O)C2CC2)CC1,inconclusive: -47.3%
23,COc1ccc(C(=O)C(c2ccccc2)N2CCOCC2)cc1 (centres undefined),inactive: 4.9%

row,SMILES,"activity change (PNC), negative = inhibition"
1,O=C1CC(c2ccco2)Cc2nc(N3CCc4ccccc4C3)ncc21 (centres undefined),inactive: -18.7%
2,CCOc1ccc(NC(=O)CN2CCN(CC(=O)Nc3ccc(F)cc3)CC2)cc1,inactive: -21.3%
3,CC(C)(C)c1nc(S(=O)(=O)c2ccc(Cl)cc2)c(N2CCOCC2)o1,inactive: 40.9%
4,COc1ccc(OC)c(CC(NC(C)=O)C(=O)NC2CCN(c3nc(C)cc(C)c3C#N)CC2)c1 (centres undefined),inactive: 5.49%
5,CCOC(=O)N1CCN(C(=O)c2ccc3c(=O)n(CCC4=CCCCC4)c(=S)[nH]c3c2)CC1,inconclusive: -67.2%
6,CCn1c(SCc2ccc(Cl)cc2)nnc1-c1ccccc1,inconclusive: -34.8%
7,CCOC(=O)c1c(NC(=O)CSc2ncnc3ccccc23)sc(C)c1C,inactive: 19.3%
8,COc1ccc(CNC(=O)CN(C(=O)c2ccc(CN3CCOCC3)o2)C2CCCC2)cc1,inconclusive: -39.6%
9,CCc1cccc(C)c1NC(=O)c1ccc(CN2CCc3ccccc3C2)cc1,inconclusive: -50.7%
10,Cc1cc(S(=O)(=O)N(Cc2ccccn2)Cc2ccco2)ccc1-n1cnnn1,inconclusive: -54.5%
11,Cc1cc(C)n(CC(O)COCc2ccccc2)n1 (centres undefined),inconclusive: -51.8%
12,O=C1CC(c2ccccc2)Cc2nc(NCc3ccco3)ncc21 (centres undefined),inconclusive: -40.6%
13,O=C(N/N=C/c1ccccc1OCC(=O)N1CCCC1)C(=O)Nc1ccccc1F,inconclusive: -41.3%
14,c1ccc(-n2ncc3c(NCc4cccs4)ncnc32)cc1,inactive: 8.06%
15,Cc1cccc(C2NC(c3cccc(C)c3)C([N+](=O)[O-])C(C)(C)C2[N+](=O)[O-])c1 (centres undefined),inactive: -3.58%
16,Brc1ccccc1C1CC(c2ccccc2)=Nc2ccccc2N1 (centres undefined),inconclusive: -60.1%
17,CN(Cc1ccccc1)C(=O)[C@H]1CCC(=O)N1Cc1ccco1,inconclusive: -43.2%
18,Cc1ccc(C2CC(=O)N3CN(c4ccc(Br)cc4)CSC3=C2C#N)o1 (centres undefined),inactive: -18.8%
19,CCc1[nH]nc2c1C(c1ccc(Br)s1)C(C#N)=C(N)O2 (centres undefined),inconclusive: -56.9%
20,O=C(NC1CCCCC1)C(c1ccco1)N(Cc1cccs1)C(=O)Cn1nnc2ccccc21 (centres undefined),inconclusive: -44.8%

# A section of the results above:
row,SMILES,"activity change (PNC), negative = inhibition"
14,c1ccc(-n2ncc3c(NCc4cccs4)ncnc32)cc1,inactive: 8.06%
15,Cc1cccc(C2NC(c3cccc(C)c3)C([N+](=O)[O-])C(C)(C)C2[N+](=O)[O-])c1 (centres undefined),inactive: -3.58%
16,Brc1ccccc1C1CC(c2ccccc2)=Nc2ccccc2N1 (centres undefined),inconclusive: -60.1%
17,CN(Cc1ccccc1)C(=O)[C@H]1CCC(=O)N1Cc1ccco1,inconclusive: -43.2%
18,Cc1ccc(C2CC(=O)N3CN(c4ccc(Br)cc4)CSC3=C2C#N)o1 (centres undefined),inactive: -18.8%

# Structures shown so far that have a CF3 group, in the order listed:
row,SMILES,"activity change (PNC), negative = inhibition"
7,CCCCn1nc2cc(C(=O)NCc3cc(C(F)(F)F)cc(C(F)(F)F)c3)ccc2c1OCC,inconclusive: -53.4%
20,FC(F)(F)c1cccc(-c2cc3ccccc3nc2N2CCCC2)c1,active: -94.9%
